Publication PMC2994771
These are yes or no findings as the source states them, for the method shown. In cells and extracts the contact can be indirect. Some results given as binding are weak or reduced against the parent protein; the word gives no strength. Each block holds one binder with its values, some of them ahead of it.

By UniProt entry, the sequences of proteins in these tests, tags left out. Where a name states a change or a piece, a line headed by the entry shows the natural chain unless it says otherwise.
UniProt P08069: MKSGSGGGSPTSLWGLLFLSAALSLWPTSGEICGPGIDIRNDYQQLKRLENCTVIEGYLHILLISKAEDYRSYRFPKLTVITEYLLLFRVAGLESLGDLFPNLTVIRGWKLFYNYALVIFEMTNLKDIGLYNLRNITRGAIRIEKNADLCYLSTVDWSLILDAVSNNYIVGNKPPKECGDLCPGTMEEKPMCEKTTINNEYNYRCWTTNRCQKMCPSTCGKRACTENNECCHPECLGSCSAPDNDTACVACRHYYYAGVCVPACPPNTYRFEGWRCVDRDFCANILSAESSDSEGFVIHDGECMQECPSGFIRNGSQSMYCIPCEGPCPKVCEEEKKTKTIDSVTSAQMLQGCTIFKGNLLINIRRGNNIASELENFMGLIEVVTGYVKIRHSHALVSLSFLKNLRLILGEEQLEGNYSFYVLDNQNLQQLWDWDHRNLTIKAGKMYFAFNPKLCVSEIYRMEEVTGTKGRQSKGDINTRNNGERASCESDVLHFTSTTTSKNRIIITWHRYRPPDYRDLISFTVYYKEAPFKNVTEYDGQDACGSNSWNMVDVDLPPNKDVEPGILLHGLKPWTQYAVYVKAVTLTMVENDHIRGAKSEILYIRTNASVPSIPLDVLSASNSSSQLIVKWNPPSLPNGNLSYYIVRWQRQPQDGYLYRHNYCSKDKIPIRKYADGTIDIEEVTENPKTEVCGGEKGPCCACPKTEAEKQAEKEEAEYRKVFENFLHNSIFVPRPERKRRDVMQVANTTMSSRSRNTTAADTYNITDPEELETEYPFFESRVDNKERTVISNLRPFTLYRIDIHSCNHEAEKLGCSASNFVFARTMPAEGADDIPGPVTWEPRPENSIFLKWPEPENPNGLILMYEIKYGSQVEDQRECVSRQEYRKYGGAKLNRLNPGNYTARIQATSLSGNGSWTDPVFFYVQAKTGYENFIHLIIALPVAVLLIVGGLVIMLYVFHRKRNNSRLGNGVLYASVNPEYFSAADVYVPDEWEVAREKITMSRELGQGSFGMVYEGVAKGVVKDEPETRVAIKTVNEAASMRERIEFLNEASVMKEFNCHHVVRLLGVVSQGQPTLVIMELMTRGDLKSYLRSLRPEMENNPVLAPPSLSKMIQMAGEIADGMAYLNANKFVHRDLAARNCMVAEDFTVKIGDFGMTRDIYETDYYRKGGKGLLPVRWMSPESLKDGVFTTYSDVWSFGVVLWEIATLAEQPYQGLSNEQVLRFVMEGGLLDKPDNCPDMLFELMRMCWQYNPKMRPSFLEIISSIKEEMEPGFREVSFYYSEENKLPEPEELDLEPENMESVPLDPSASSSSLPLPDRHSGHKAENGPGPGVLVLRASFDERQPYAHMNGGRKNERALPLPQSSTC

What was measured:
[1] = target: Insulin-like growth factor-I receptor (IGF-IR) (human (endogenous in HaCat)), P08069; experiment: co-IP; serum-starved HaCat cells stimulated with IGF1 10 nM for the indicated times, lysed in Na2CO3 0.5 M (pH 11); reciprocal immunoprecipitations of endogenous proteins, immunoblot; conditions: remark: other sources report otherwise
[2] = target: Insulin-like growth factor-I receptor (IGF-IR) (human (endogenous in HaCat)) (UniProt P08069); experiment: as above

- binding [1]: binds
B1: Caveolin-1 (Cav-1), Q03135-1 1-178 (protein)
chain: MSGGKYVDSEGHLYTVPIREQGNIYKPNNKAMADELSEKQVYDAHTKEIDLVNRDPKHLNDDVVKIDFEDVIAEPEGTHSFDGIWKASFTTFTVTKYWFYRLLSALFGIPMALIWGIYFAILSFLHIWAVVPCIKSFLIEIQCISRVYSIYVHTVCDPLFEAVGKIFSNVRINLQKEI

- binding [2]: binds
B2: Polymerase I and Transcript Release Factor (PTRF/Cavin) (protein, UniProt Q6NZI2-1 1-390)
chain: MEDPTLYIVERPLPGYPDAEAPEPSSAGAQAAEEPSGAGSEELIKSDQVNGVLVLSLLDKIIGAVDQIQLTQAQLEERQAEMEGAVQSIQGELSKLGKAHATTSNTVSKLLEKVRKVSVNVKTVRGSLERQAGQIKKLEVNEAELLRRRNFKVMIYQDEVKLPAKLSISKSLKESEALPEKEGEELGEGERPEEDAAALELSSDEAVEVEEVIEESRAERIKRSGLRRVDDFKKAFSKEKMEKTKVRTRENLEKTRLKTKENLEKTRHTLEKRMNKLGTRLVPAERREKLKTSRDKLRKSFTPDHVVYARSKTAVYKVPPFTFHVKKIREGQVEVLKATEMVEVGADDDEGGAERGEAGDLRRGSSPDVHALLEITEESDAVLVDKSDSD
